Experimental data as given in PubChem BioAssay AID504467 (National Center for Advancing Translational Sciences (NCATS), 2011).
Among all 330,000 compounds or so, about 7,700 (2.3%) were called active. Inconclusive results, whose numbers are uncertain, are shown with a selection of clear calls. The call rests on the fitted dose curve; in most records, active means well fitted inhibition curve with a large enough effect; inconclusive means small, poorly fitted or top-dose-only effect, or effect the other way; inactive means flat fitted curve, though single readings scatter. A potency beside an inconclusive call is a rough fit, not a confirmed value.

Assay: qHTS screen for small molecules that inhibit ELG1-dependent DNA repair in human embryonic kidney (HEK293T) cells expressing luciferase-tagged ELG1; further: nearly all actives have a fitted effect of over 55% in size
Details: HEK293T ELG1-luciferase reporter, luminescence, 16 h, DNA damage induced by 5-fluorouridine; activity change, negative = inhibition: at 46.1 µM (top of the series)
Procedure, shortened: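 Quantitative HTS, concentration-response format. 2,000 cells/well co-treated with 5-fluorouridine and compound, 16 hr in 5% CO2 at 37 °C; ONE-Glo luminescence read after 30 min.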
On the % scale 0 is the no-effect control and ±100 the full control effect; potency means the concentration at half of the fitted maximal effect.

SMILES | Potency | activity change, negative = inhibition
CCCc1ccc(OCc2ccc(C(=O)N/N=C/c3cccnc3)o2)cc1 | inconclusive: 1.46 µM [activator, full curve] | –
CN(C)C(=O)/C(=C/c1cn(-c2ccccc2)nc1-c1cccc([N+](=O)[O-])c1)NC(=O)c1ccccc1 | inconclusive: 20.6 µM [inhibitor, single point] | –
CCOc1ccc(S(=O)(=O)/N=C(/Nc2ccc(C)c(S(=O)(=O)N3CCOCC3)c2)c2ccccc2)cc1 | inconclusive: 10.3 µM [inhibitor, single point] | –
COc1ccccc1C(=O)Nc1ccnn1C1CCN(C(=O)c2cnsn2)CC1 | inconclusive: 20.6 µM [activator, single point] | –
CCOc1ccccc1NC(=O)C(OC(=O)c1cc(C)oc1C)c1ccccc1 (stereo not drawn) | – | inactive: 14.9%
Cc1cccc(OCCCn2c(CO)nc3ccccc32)c1 | inconclusive: 16.4 µM [activator, partial curve] | –
[O-]/C(=C(\C(=S)Nc1ccc(SC(F)F)cc1)[n+]1ccccc1)c1ccc(Cl)cc1Cl | active: 14.6 µM | –
Cc1cc(NC(=O)c2cnn3cccnc23)no1 | inconclusive: 5.17 µM [activator, partial curve] | –
COC(=O)c1ccc(CSc2nnc3n(Cc4ccccc4OC)c(=O)c4ccccc4n23)o1 | inconclusive: 29.1 µM [inhibitor, single point] | –
CCOc1cc(/C=N/NC(=O)c2cccnc2)ccc1O | – | inactive: 1.29%
Cc1ccsc1/C=C1/SC(=O)N(CC(=O)N2CCOCC2)C1=O | inconclusive: 18.4 µM [activator, partial curve] | –
COc1cccc(C(=O)Nc2ccc3c(c2)CCCN3C(=O)c2cccs2)c1OC | inconclusive: 29.1 µM [inhibitor, single point] | –
CC(C)(C)C(=O)NC1CC2CCCC(C1)N2C(=O)Nc1ccc(Cl)cc1 (stereo not drawn) | inconclusive: 5.8 µM [inhibitor, full curve] | –
NS(=O)(=O)c1ccc(NC(=O)Nc2ccc(Cl)cc2)cc1 | inconclusive: 10.3 µM [activator, partial curve, poor fit] | –
COc1ccc2oc(C(=O)OCC(=O)Nc3ccc(NC(C)=O)cc3)c(C)c2c1 | inconclusive: 18.3 µM [activator, single point] | –
CCOc1ncccc1C(=O)Nc1ccc(S(=O)(=O)Nc2nc(C)cc(C)n2)cc1 | inconclusive: 20.6 µM [activator, partial curve, poor fit] | –
CC(=O)Nc1ccc(S(=O)(=O)N2CCN(Cc3ccccc3[N+](=O)[O-])CC2)cc1 | active: 9.2 µM | –
COc1ccccc1C(CNC(=O)C1CC(=O)N(Cc2ccccc2)C1)N1CCCC1 (stereo not drawn) | – | inactive: 0%
COCCn1c(SC(C)C(=O)NCC2CCCO2)nc2scc(-c3ccc(F)cc3)c2c1=O (stereo not drawn) | inconclusive: 23.1 µM [inhibitor, partial curve, poor fit] | –
CCOc1ccc(NC(=O)CC2C(=O)N(c3ccc(OC)c(Cl)c3)C(=S)N2C2CC2)cc1 (stereo not drawn) | inconclusive: 25.9 µM [inhibitor, partial curve, poor fit] | –
CN(O)C(=O)Nc1ccc([N+](=O)[O-])cc1 | – | inactive: -14.6%
Cc1ccc(S(=O)(=O)N2CCC(C(=O)OC(C)C(=O)N(C)c3ccccc3)CC2)cc1C (stereo not drawn) | inconclusive: 29.1 µM [inhibitor, single point] | –
Cc1onc(-c2ccccc2Cl)c1C(=O)NCc1nc(-c2ccccc2)no1 | inconclusive: 5.17 µM [inhibitor, single point] | –

SMILES | Potency | activity change, negative = inhibition
Cc1cccc(-c2nnc(SCC(=O)O)n2Cc2ccccc2)c1 | inconclusive: 32.6 µM [activator, partial curve, poor fit] | –
CN1C(=O)CSc2ccc(NC(=O)Nc3ccccn3)cc21 | inconclusive: 2.59 µM [activator, partial curve] | –
CCOc1c([N+](=O)[O-])cc2c(C)c(C(=O)N3CCN(C)CC3)oc2c1OCC | – | inactive: -1.84%
CC1CCN(C(=O)CSc2nc3c(c(=O)n2C)SCC3)CC1 | inconclusive: 32.6 µM [activator, partial curve, poor fit] | –
COc1ccc(CNC(=S)Nc2ccc3nc(N4CCOCC4)cc(C)c3c2)cc1 | inconclusive: 23.1 µM [inhibitor, single point] | –
Cc1cccc(-c2cc(C(=O)Nc3ccncc3)c3ccccc3n2)c1 | inconclusive: 25.9 µM [inhibitor, partial curve, poor fit] | –
CCN(CC)c1ccc2nc3ccc(N)cc3[n+](-c3ccccc3)c2c1 | inconclusive: 18.3 µM [inhibitor, single point] | –
FC(F)(F)c1cccc(N2CCN(C(=S)NC3CCCC3)CC2)c1 | inconclusive: 11.6 µM [inhibitor, partial curve] | –
Cc1cc(C(=O)CSc2cccc[n+]2[O-])c(C)n1-c1ccc(Br)cc1 | inconclusive: 16.4 µM [activator, partial curve] | –
CC(C)=CCc1c(O)ccc(C(=O)Cc2ccccc2)c1O | – | inactive: 16.6%
O=C(NC1CCCC1)c1cc2ccccc2o1 | inconclusive: 18.3 µM [activator, partial curve] | –
COc1cc(NC(=O)COC(=O)CCOc2ccc(C)cc2)cc(OC)c1 | – | inactive: 0.326%
Cn1c(=O)c2c(nc(Oc3ccc4c(c3)OCO4)n2Cc2ccc(Cl)cc2)n(C)c1=O | – | inactive: -13.2%
Cc1ccc(-n2c(SCC(=O)N3CCC(C(=O)O)CC3)nc3ccccc3c2=O)cc1C | inconclusive: 20.6 µM [activator, partial curve] | –
Cc1nc(-c2ccccc2)sc1-c1n[nH]c(=S)n1C | – | inactive: 12.1%
Nc1ccc(C(=O)N/N=C/c2sc(N3CCOCC3)nc2-c2ccccc2)cc1 | inconclusive: 23.1 µM [inhibitor, partial curve, poor fit] | –
CCN1C(=C2C(=O)c3ccccc3C2=O)C=Cc2ccccc21 | – | inactive: 17.3%
CCN1CCN(CC(O)COC(c2ccccc2)c2ccccc2C)CC1 (stereo not drawn) | – | inactive: -0.279%
COc1ccccc1Nc1nc(N)nc(CSc2nccn2C)n1 | inconclusive: 29.1 µM [activator, single point] | –
CC(CCc1ccccc1)NC(=O)c1nnc(Cc2ccc(Cl)cc2)o1 (stereo not drawn) | inconclusive: 18.4 µM [inhibitor, single point] | –
COCCN(C(=S)Nc1cccc(C)c1C)C(C)c1ccco1 (stereo not drawn) | – | inactive: 17%
CCOC(=O)c1ccc(N2Cc3cc(C)c(C)cc3C2)cc1O | inconclusive: 14.6 µM [activator, partial curve] | –
CCSc1oc(-c2cccs2)nc1S(=O)(=O)c1ccccc1 | – | inactive: 1.09%

A different layout for part of the listing above.
SMILES	Potency	activity change, negative = inhibition
COC(=O)c1ccc(CSc2nnc3n(Cc4ccccc4OC)c(=O)c4ccccc4n23)o1	inconclusive: 29.1 µM [inhibitor, single point]	–
CCOc1cc(/C=N/NC(=O)c2cccnc2)ccc1O	–	inactive: 1.29%
Cc1ccsc1/C=C1/SC(=O)N(CC(=O)N2CCOCC2)C1=O	inconclusive: 18.4 µM [activator, partial curve]	–
COc1cccc(C(=O)Nc2ccc3c(c2)CCCN3C(=O)c2cccs2)c1OC	inconclusive: 29.1 µM [inhibitor, single point]	–
CC(C)(C)C(=O)NC1CC2CCCC(C1)N2C(=O)Nc1ccc(Cl)cc1 (stereo not drawn)	inconclusive: 5.8 µM [inhibitor, full curve]	–
NS(=O)(=O)c1ccc(NC(=O)Nc2ccc(Cl)cc2)cc1	inconclusive: 10.3 µM [activator, partial curve, poor fit]	–
COc1ccc2oc(C(=O)OCC(=O)Nc3ccc(NC(C)=O)cc3)c(C)c2c1	inconclusive: 18.3 µM [activator, single point]	–
CCOc1ncccc1C(=O)Nc1ccc(S(=O)(=O)Nc2nc(C)cc(C)n2)cc1	inconclusive: 20.6 µM [activator, partial curve, poor fit]	–
CC(=O)Nc1ccc(S(=O)(=O)N2CCN(Cc3ccccc3[N+](=O)[O-])CC2)cc1	active: 9.2 µM	–
COc1ccccc1C(CNC(=O)C1CC(=O)N(Cc2ccccc2)C1)N1CCCC1 (stereo not drawn)	–	inactive: 0%
COCCn1c(SC(C)C(=O)NCC2CCCO2)nc2scc(-c3ccc(F)cc3)c2c1=O (stereo not drawn)	inconclusive: 23.1 µM [inhibitor, partial curve, poor fit]	–
CCOc1ccc(NC(=O)CC2C(=O)N(c3ccc(OC)c(Cl)c3)C(=S)N2C2CC2)cc1 (stereo not drawn)	inconclusive: 25.9 µM [inhibitor, partial curve, poor fit]	–
CN(O)C(=O)Nc1ccc([N+](=O)[O-])cc1	–	inactive: -14.6%
Cc1ccc(S(=O)(=O)N2CCC(C(=O)OC(C)C(=O)N(C)c3ccccc3)CC2)cc1C (stereo not drawn)	inconclusive: 29.1 µM [inhibitor, single point]	–
Cc1onc(-c2ccccc2Cl)c1C(=O)NCc1nc(-c2ccccc2)no1	inconclusive: 5.17 µM [inhibitor, single point]	–
Cc1cccc(-c2nnc(SCC(=O)O)n2Cc2ccccc2)c1	inconclusive: 32.6 µM [activator, partial curve, poor fit]	–

(cont.)

SMILES | Potency | activity change, negative = inhibition
CCOC(=O)c1[nH]c(C)c(C(=O)N2CCN(c3ccc(OC)cc3)CC2)c1C | – | inactive: -4.12%
CCOC(=O)CSc1nc(-c2ccc(OC)cc2)ns1 | inconclusive: 16.4 µM [activator, partial curve, poor fit] | –
COc1ccc(C(=O)Nc2ccc(Cl)c(Cl)c2)c(OC)n1 | inconclusive: 2.31 µM [activator, full curve] | –
CCN(CC)C(=O)Oc1ccc2c(=O)c(-c3ccccc3)coc2c1 | inconclusive: 2.59 µM [activator, full curve] | –
Nc1cccc(Nc2ncnc3ccccc23)c1 | inconclusive: 31.6 µM [inhibitor, single point] | –
Cn1c(=O)[nH]c(=O)c2c1nc(CN1CCN(c3cccc(Cl)c3)CC1)n2CCc1ccccc1 | inconclusive: 23.1 µM [inhibitor, single point] | –
CN(Cc1ccco1)c1ncnc2ccc(-c3ccc4c(ccn4C)c3)cc12 | – | inactive: -23.4%
NC(N)=NS(=O)(=O)c1ccc(NC(=S)NC(=O)c2sc3ccccc3c2Cl)cc1 | – | inactive: -9.3%
CC(=NCCCN(C)C)C1=C(O)c2ccccc2C1=O | inconclusive: 20.6 µM [activator, partial curve, poor fit] | –
CCS(=O)(=O)Nc1ccc(C(=O)CC2(O)C(=O)Nc3ccc(Br)cc32)cc1 (stereo not drawn) | – | inactive: -13.5%
O=C(NCc1cccnc1)c1ccc(Cl)c(Cl)c1 | – | inactive: 1.71%
CCCc1cc(=O)oc2cc(C)cc(OC(=O)c3ccco3)c12 | inconclusive: 35.5 µM [inhibitor, single point] | –
c1ccc(CSc2ccc(-c3ccccn3)nn2)cc1 | inconclusive: 2.06 µM [activator, partial curve] | –
CCCOc1ccc(C2C(C(=O)c3ccco3)=C(O)C(=O)N2CCCn2ccnc2)cc1 (stereo not drawn) | inconclusive: 29.1 µM [activator, partial curve, poor fit] | –
CC(=O)Nc1c(O)nc(SCC(=O)Nc2ccc(C(C)=O)cc2)[nH]c1=O | inconclusive: 25.9 µM [activator, single point] | –
CCc1ccc(CN2C(=O)c3ccccc3C2C(=O)NC(C)CC)cc1 (stereo not drawn) | inconclusive: 16.4 µM [inhibitor, partial curve, poor fit] | –
CCCOc1ccccc1NC(=O)c1ccc([N+](=O)[O-])cc1 | – | inactive: -14.8%
Cc1ccc(NC(=O)N(Cc2ccc3c(c2)OCO3)Cc2cc3cc4c(cc3[nH]c2=O)OCCO4)cc1 | active: 20.6 µM | –
O=C(/C=C/c1ccc2ccccc2c1)c1ccoc1 | inconclusive: 20.6 µM [activator, single point] | –
O=C1CCCN1c1ccc(S(=O)(=O)NCCOc2ccccc2)cc1 | inconclusive: 18.4 µM [inhibitor, single point] | –
CCn1c(SCC(=O)c2cccs2)nnc1-c1cccs1 | inconclusive: 14.6 µM [activator, partial curve] | –
O=[N+]([O-])c1cccc(-c2nc(-c3cccs3)c(-c3cccs3)[nH]2)c1 | inconclusive: 23.1 µM [inhibitor, single point] | –
